# Reference: article PMC5584137
# Results are given in words; binding and its absence hold for the method and conditions named. Binding seen in cells or lysates may run through a third protein. Some binding calls cover weakened binding; strength is not graded here. For part of these data: Tags and fused reporters may be left off the sequences shown.
# T1: endogenous estrogen related receptor alpha (ERR1) (human (endogenous in MCF-7 and MDA-MB-231)) (UniProt P11474)
# T1 sequence: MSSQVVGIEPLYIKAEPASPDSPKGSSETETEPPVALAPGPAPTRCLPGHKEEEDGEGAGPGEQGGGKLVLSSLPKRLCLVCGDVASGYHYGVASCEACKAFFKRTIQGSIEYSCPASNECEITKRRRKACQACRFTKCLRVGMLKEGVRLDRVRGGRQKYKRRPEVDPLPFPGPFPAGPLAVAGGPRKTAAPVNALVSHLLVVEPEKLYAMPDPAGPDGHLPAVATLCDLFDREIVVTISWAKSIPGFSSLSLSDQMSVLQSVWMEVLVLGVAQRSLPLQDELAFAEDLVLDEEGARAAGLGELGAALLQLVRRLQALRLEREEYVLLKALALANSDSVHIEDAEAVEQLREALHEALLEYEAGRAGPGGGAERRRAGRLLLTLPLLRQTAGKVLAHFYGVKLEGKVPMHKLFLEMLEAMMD
# T2: GST-tagged full-length KIF17 (human) (UniProt Q9P2E2)
# T2 sequence: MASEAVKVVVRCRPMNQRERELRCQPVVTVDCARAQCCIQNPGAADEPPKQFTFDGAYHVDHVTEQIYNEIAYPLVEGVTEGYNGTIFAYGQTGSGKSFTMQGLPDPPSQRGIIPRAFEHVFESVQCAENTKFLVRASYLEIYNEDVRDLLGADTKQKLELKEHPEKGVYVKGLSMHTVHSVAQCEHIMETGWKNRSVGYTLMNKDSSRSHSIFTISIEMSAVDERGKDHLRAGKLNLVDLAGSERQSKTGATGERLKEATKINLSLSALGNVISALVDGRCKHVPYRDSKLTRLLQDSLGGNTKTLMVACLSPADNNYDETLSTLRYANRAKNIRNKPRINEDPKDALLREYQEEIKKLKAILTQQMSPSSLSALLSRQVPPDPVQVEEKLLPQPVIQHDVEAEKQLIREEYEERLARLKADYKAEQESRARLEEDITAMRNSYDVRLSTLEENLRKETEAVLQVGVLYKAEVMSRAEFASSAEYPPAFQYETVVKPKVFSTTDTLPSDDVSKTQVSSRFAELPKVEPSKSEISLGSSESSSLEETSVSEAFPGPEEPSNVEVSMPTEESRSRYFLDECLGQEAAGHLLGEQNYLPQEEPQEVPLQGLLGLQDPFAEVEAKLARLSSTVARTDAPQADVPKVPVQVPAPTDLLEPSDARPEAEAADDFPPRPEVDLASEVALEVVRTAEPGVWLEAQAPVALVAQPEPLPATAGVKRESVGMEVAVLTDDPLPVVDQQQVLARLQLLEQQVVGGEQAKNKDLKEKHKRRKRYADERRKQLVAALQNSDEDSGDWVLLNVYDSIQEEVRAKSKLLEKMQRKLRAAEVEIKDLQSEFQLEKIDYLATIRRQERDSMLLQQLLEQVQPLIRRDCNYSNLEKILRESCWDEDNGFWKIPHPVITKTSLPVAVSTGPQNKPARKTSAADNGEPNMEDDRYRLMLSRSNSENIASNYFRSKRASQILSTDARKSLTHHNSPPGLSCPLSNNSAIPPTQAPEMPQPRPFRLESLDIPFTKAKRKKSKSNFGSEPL
# Legend:
# [1] = molecular target: T1, endogenous estrogen related receptor alpha (ERR1) (human (endogenous in MCF-7 and MDA-MB-231)); assay: co-IP; endogenous proteins, ER-negative MDA-MB-231 cells; not shown
# [2] = molecular target: T1, endogenous estrogen related receptor alpha (ERR1) (human (endogenous in MCF-7 and MDA-MB-231)); assay: co-IP; endogenous proteins, MCF-7 lysate; overnight with 10 μg mouse anti-ERR1 antibody or non-specific control IgG, Protein-G sepharose; immunoblot
# [3] = molecular target: T2, GST-tagged full-length KIF17 (human); assay: pull-down; purified, recombinant GST-tagged proteins immobilized on glutathione-sepharose beads; GFP-ERR1 from cell lysates; not shown; only the target purified
binding [1],binding [2],binding [3],Binder
binds,binds,,"endogenous KIF17 (protein, UniProt Q9P2E2 1-1029) MASEAVKVVVRCRPMNQRERELRCQPVVTVDCARAQCCIQNPGAADEPPKQFTFDGAYHVDHVTEQIYNEIAYPLVEGVTEGYNGTIFAYGQTGSGKSFTMQGLPDPPSQRGIIPRAFEHVFESVQCAENTKFLVRASYLEIYNEDVRDLLGADTKQKLELKEHPEKGVYVKGLSMHTVHSVAQCEHIMETGWKNRSVGYTLMNKDSSRSHSIFTISIEMSAVDERGKDHLRAGKLNLVDLAGSERQSKTGATGERLKEATKINLSLSALGNVISALVDGRCKHVPYRDSKLTRLLQDSLGGNTKTLMVACLSPADNNYDETLSTLRYANRAKNIRNKPRINEDPKDALLREYQEEIKKLKAILTQQMSPSSLSALLSRQVPPDPVQVEEKLLPQPVIQHDVEAEKQLIREEYEERLARLKADYKAEQESRARLEEDITAMRNSYDVRLSTLEENLRKETEAVLQVGVLYKAEVMSRAEFASSAEYPPAFQYETVVKPKVFSTTDTLPSDDVSKTQVSSRFAELPKVEPSKSEISLGSSESSSLEETSVSEAFPGPEEPSNVEVSMPTEESRSRYFLDECLGQEAAGHLLGEQNYLPQEEPQEVPLQGLLGLQDPFAEVEAKLARLSSTVARTDAPQADVPKVPVQVPAPTDLLEPSDARPEAEAADDFPPRPEVDLASEVALEVVRTAEPGVWLEAQAPVALVAQPEPLPATAGVKRESVGMEVAVLTDDPLPVVDQQQVLARLQLLEQQVVGGEQAKNKDLKEKHKRRKRYADERRKQLVAALQNSDEDSGDWVLLNVYDSIQEEVRAKSKLLEKMQRKLRAAEVEIKDLQSEFQLEKIDYLATIRRQERDSMLLQQLLEQVQPLIRRDCNYSNLEKILRESCWDEDNGFWKIPHPVITKTSLPVAVSTGPQNKPARKTSAADNGEPNMEDDRYRLMLSRSNSENIASNYFRSKRASQILSTDARKSLTHHNSPPGLSCPLSNNSAIPPTQAPEMPQPRPFRLESLDIPFTKAKRKKSKSNFGSEPL"
,,binds,"full-length GFP-ERR1 (protein, UniProt P11474 1-423) MSSQVVGIEPLYIKAEPASPDSPKGSSETETEPPVALAPGPAPTRCLPGHKEEEDGEGAGPGEQGGGKLVLSSLPKRLCLVCGDVASGYHYGVASCEACKAFFKRTIQGSIEYSCPASNECEITKRRRKACQACRFTKCLRVGMLKEGVRLDRVRGGRQKYKRRPEVDPLPFPGPFPAGPLAVAGGPRKTAAPVNALVSHLLVVEPEKLYAMPDPAGPDGHLPAVATLCDLFDREIVVTISWAKSIPGFSSLSLSDQMSVLQSVWMEVLVLGVAQRSLPLQDELAFAEDLVLDEEGARAAGLGELGAALLQLVRRLQALRLEREEYVLLKALALANSDSVHIEDAEAVEQLREALHEALLEYEAGRAGPGGGAERRRAGRLLLTLPLLRQTAGKVLAHFYGVKLEGKVPMHKLFLEMLEAMMD"
